Source: PubChem BioAssay AID1159578 (Peter MacCallum Cancer Centre, 2015)
Assay: 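Knock-downs that alter how fast lymphatic endothelial cells migrate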 (primary screen). Cell system: human lymphatic endothelial cells. Reagent: siRNA pool against human genes, 40 nM. Timing: 48 h after transfection. Detection: 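High-content imaging of dye-stained cells in a scratch assay measures filled wound area and nuclei per well; duplicate means given as ratio to mock and robust z-score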. Direction: migration robust z-score: higher = faster migration into the scratch; migration relative to mock: higher = more scratch area covered than mock; nuclei per well: higher = more cells in the well. Hit rule: 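Migration changed when robust z exceeds 2 or falls below -2 and mean nuclei number is at least 3300; otherwise not called changed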. Calls: active = migration changed; inactive = no migration change, or too few cells.
This is an unselected part of about 18,000 reagents. In the full data, about 1,030 (5.7%) got an active call. 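Inactive calls also include pools with fewer than 3300 nuclei, whose migration was not assessed.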 Raw values vary from plate to plate and are shown uncorrected.

no.	gene	migration robust z-score	migration class with cell-count check	migration relative to mock	nuclei per well, duplicate mean	outcome
1	TDRP	0.68	migration z between -2 and 2; enough cells	1.06	6150	inactive
2	IKZF5	0.2	migration z between -2 and 2; enough cells	0.94	5236	inactive
3	DDX1	-0.39	migration z between -2 and 2; enough cells	0.73	4904	inactive
4	RP1L1	-0.77	migration z between -2 and 2; enough cells	0.68	5236	inactive
5	LINC01973	0.67	migration z between -2 and 2; enough cells	1.06	5741	inactive
6	WASF1	1.11	migration z between -2 and 2; enough cells	1.17	6020	inactive
7	PDSS1	-0.57	migration z between -2 and 2; enough cells	0.7	5246	inactive
8	DELEC1	-0.02	migration z between -2 and 2; enough cells	0.88	6012	inactive
9	GRIP2	-1.89	migration z between -2 and 2; enough cells	0.4	4288	inactive
10	SLC6A6	0.57	migration z between -2 and 2; enough cells	0.92	5830	inactive
11	OCEL1	-0.62	migration z between -2 and 2; enough cells	0.73	6004	inactive
12	STK17A	-0.5	migration z between -2 and 2; enough cells	0.71	5581	inactive
13	FANK1	0.32	migration z between -2 and 2; enough cells	0.97	3742	inactive
14	ELN	-0.43	migration z between -2 and 2; enough cells	0.77	5392	inactive
15	RNASEH2A	0.93	migration z between -2 and 2; enough cells	0.98	5372	inactive
16	GSPT2	0.18	migration z between -2 and 2; enough cells	0.84	4570	inactive
17	HOXB3	0.1	migration z between -2 and 2; enough cells	0.82	5236	inactive
18	TRIM64	-1.06	migration z between -2 and 2; enough cells	0.6	4318	inactive
19	GSTCD	2.11	migration z above 2; enough cells	1.44	6958	active
20	PPP2R2D	0.06	migration z between -2 and 2; enough cells	0.82	5748	inactive
21	SCFD2	-0.85	migration z between -2 and 2; enough cells	0.66	5208	inactive
22	FADS1	-1.01	under 3300 nuclei; migration not judged	0.61	3065	inactive
23	TGS1	0.6	migration z between -2 and 2; enough cells	0.92	6614	inactive
24	PCDHA1	0.16	migration z between -2 and 2; enough cells	0.92	5958	inactive
25	TMEM205	-0.26	migration z between -2 and 2; enough cells	0.82	6045	inactive
26	NAGS	0.12	migration z between -2 and 2; enough cells	0.92	5816	inactive
27	RBMY1E	-0.55	migration z between -2 and 2; enough cells	0.74	5894	inactive
28	PLGLB1	0.2	migration z between -2 and 2; enough cells	0.94	5114	inactive
29	SIL1	1.25	migration z between -2 and 2; enough cells	1.21	7631	inactive
30	EXD1	2.51	migration z above 2; enough cells	1.54	6706	active
31	SBF1	-0.62	migration z between -2 and 2; enough cells	0.68	6664	inactive
32	FKBP3	-0.7	migration z between -2 and 2; enough cells	0.67	5249	inactive
33	EBI3	0.32	migration z between -2 and 2; enough cells	0.97	4662	inactive
34	DNM2	-0.03	migration z between -2 and 2; enough cells	0.88	7432	inactive
35	CMC2	3.78	migration z above 2; enough cells	1.87	5319	active
36	ZNF747	0.97	migration z between -2 and 2; enough cells	1.14	4384	inactive
37	TDRD3	0.29	migration z between -2 and 2; enough cells	0.96	5898	inactive
38	LSM11	0.88	migration z between -2 and 2; enough cells	1.11	5688	inactive
39	KEAP1	-0.71	migration z between -2 and 2; enough cells	0.7	4574	inactive
40	MMP26	0.52	migration z between -2 and 2; enough cells	0.9	5770	inactive
41	MTMR14	-0.8	migration z between -2 and 2; enough cells	0.65	5124	inactive
42	MYOG	-0.81	migration z between -2 and 2; enough cells	0.68	6422	inactive
43	SIN3B	0.67	migration z between -2 and 2; enough cells	1.05	4806	inactive
44	SOWAHA	-0.08	migration z between -2 and 2; enough cells	0.86	6694	inactive
45	CD36	0.31	migration z between -2 and 2; enough cells	0.86	4542	inactive
46	ESRRG	-0.22	migration z between -2 and 2; enough cells	0.83	7610	inactive
47	ZNF599	0.3	migration z between -2 and 2; enough cells	0.96	6517	inactive
48	CDYL2	-0.34	migration z between -2 and 2; enough cells	0.74	5184	inactive
49	NUPR1	-1.77	migration z between -2 and 2; enough cells	0.42	6730	inactive
50	REL	0.7	migration z between -2 and 2; enough cells	0.94	5086	inactive
51	MTG1	-0.92	migration z between -2 and 2; enough cells	0.64	4945	inactive
52	PPP1R36	0.29	migration z between -2 and 2; enough cells	0.96	8166	inactive
53	LETMD1	0.6	migration z between -2 and 2; enough cells	1.04	6243	inactive
54	C16orf54	-1.82	under 3300 nuclei; migration not judged	0.41	3170	inactive
55	NF1	0.29	migration z between -2 and 2; enough cells	0.86	4836	inactive
56	ESRRB	0.52	migration z between -2 and 2; enough cells	0.9	4546	inactive
57	CIAO3	-0.04	migration z between -2 and 2; enough cells	0.88	4550	inactive

A portion taken from the entries so far, as a working copy:
no.	gene	migration robust z-score	migration class with cell-count check	migration relative to mock	nuclei per well, duplicate mean	outcome
41	MTMR14	-0.8	migration z between -2 and 2; enough cells	0.65	5124	inactive
42	MYOG	-0.81	migration z between -2 and 2; enough cells	0.68	6422	inactive
43	SIN3B	0.67	migration z between -2 and 2; enough cells	1.05	4806	inactive
44	SOWAHA	-0.08	migration z between -2 and 2; enough cells	0.86	6694	inactive
45	CD36	0.31	migration z between -2 and 2; enough cells	0.86	4542	inactive
46	ESRRG	-0.22	migration z between -2 and 2; enough cells	0.83	7610	inactive
47	ZNF599	0.3	migration z between -2 and 2; enough cells	0.96	6517	inactive
